Experimental data reported in patent publication US20170189504A1, “NOVEL PEPTIDES AND COMBINATION OF PEPTIDES FOR USE IN IMMUNOTHERAPY AGAINST VARIOUS CANCERS” (immatics biotechnologies GmbH, priority 2015, published 2017).

Tests used:
[1] = tested on: HLA-A*02; test: Identification and relative LC-MS quantitation of HLA-A*02-presented tumor-associated peptides on tissue samples (presentation profiles, Tables 13A, 13B, 15, FIG. 1); design: species or system human; key to Presentation score NHL / Presentation score CLL / Presentation score BRCA / Presentation score AML / Presentation score GB / Presentation score NSCLC / Presentation score GBC_CCC / Presentation score UEC / Presentation score MEL / Presentation score OSCAR / Presentation score GC / Presentation score UBC / Presentation score OC / Presentation score RCC / Presentation score CRC / Presentation score PCA / Presentation score HCC / Presentation score PC / Presentation score SCLC: specifically presented on tumors (++++); very highly over-presented on tumors compared to a panel of normal tissues (+++); highly over-presented on tumors compared to a panel of normal tissues (++); over-presented on tumors compared to a panel of normal tissues (+); conditions: for Peptide Presentation on cancer entities: HLA-A*02-binding tumor-associated peptides
[2] = tested on: source genes (mRNA); test: Expression profiling of source genes by in-house RNASeq of tumor and normal tissues (Table 18, FIG. 2); design: species or system human; key: very highly over-expressed in tumors compared to a panel of normal tissues (+++); highly over-expressed in tumors compared to a panel of normal tissues (++); over-expressed in tumors compared to a panel of normal tissues (+); conditions: source gene of peptide; for Expression score OSCAR: esophageal cancer incl. gastric-esophageal junction (N = 11) vs panel of normal tissues; for Expression score CRC: colorectal cancer (N = 20) vs panel of normal tissues; for Expression score GC: gastric cancer (N = 11) vs panel of normal tissues; for Expression score NSCLC: non-small cell lung cancer (N = 11) vs panel of normal tissues; for Expression score OC: ovarian cancer (N = 12) vs panel of normal tissues; for Expression score UBC: urinary bladder cancer (N = 10) vs panel of normal tissues
[3] = tested on: source genes (mRNA); test: Gene and exon expression of source genes, TCGA tumor samples compared with normal tissue samples (Lonsdale, 2013) (Table 17); design: species or system human; conditions: for Target coverage: over-expression category of source gene, LAML: Acute Myeloid Leukemia (N = 173); for Target coverage: over-expression category of source gene, BLCA: Bladder urothelial carcinoma (N = 408); for Target coverage: over-expression category of source gene, BRCA: Breast cancer (N = 1104), cutoff more than 2-fold above highest 75% percentile of high and medium risk normal tissue samples; for Target coverage: over-expression category of source gene, CHOL: Cholangiocarcinoma (N = 36); for Target coverage: over-expression category of source gene, READ: Colon and rectal adenocarcinoma (N = 167); for Target coverage: over-expression category of source gene, COAD: Colon and rectal adenocarcinoma (N = 462); for Target coverage: over-expression category of source gene, ESCA: Esophageal cancer (N = 185); for Target coverage: over-expression category of source gene, GBM: Glioblastoma multiforme (N = 169); for Target coverage: over-expression category of source gene, LIHC: Liver hepatocellular carcinoma (N = 374); for Target coverage: over-expression category of source gene, LUSC: Lung squamous cell carcinoma (N = 503); for Target coverage: over-expression category of source gene, DLBC: Lymphoid neoplasm diffuse large B-cell lymphoma (N = 48); for Target coverage: over-expression category of source gene, OV: Ovarian serous cystadenocarcinoma (N = 309); for Target coverage: over-expression category of source gene, PRAD: Prostate adenocarcinoma (N = 498); for Target coverage: over-expression category of source gene, SKCM: Skin cutaneous melanoma (N = 473); for Target coverage: over-expression category of source gene, STAD: Stomach adenocarcinoma (N = 415); for Target coverage: over-expression category of source gene, UCEC: Uterine corpus endometrial carcinoma (N = 546); for Target coverage: over-expression category of source gene, PAAD: Pancreatic ductal adenocarcinoma (N = 179)
[4] = Table 13A, cancer entities on which the peptide was found presented
[5] = cutoff more than 2-fold above highest 75% percentile of normal tissue samples

Row | Substance | Peptide Presentation on cancer entities [1, 4] | Expression score OSCAR [2] | Target coverage: over-expression category of source gene, LAML [3, 5] | Target coverage: over-expression category of source gene, BLCA [3, 5] | Target coverage: over-expression category of source gene, BRCA [3] | Target coverage: over-expression category of source gene, CHOL [3, 5] | Target coverage: over-expression category of source gene, READ [3, 5] | Target coverage: over-expression category of source gene, COAD [3, 5] | Target coverage: over-expression category of source gene, ESCA [3, 5] | Target coverage: over-expression category of source gene, GBM [3, 5] | Target coverage: over-expression category of source gene, LIHC [3, 5] | Target coverage: over-expression category of source gene, LUSC [3, 5] | Target coverage: over-expression category of source gene, DLBC [3, 5] | Target coverage: over-expression category of source gene, OV [3, 5] | Target coverage: over-expression category of source gene, PRAD [3, 5] | Target coverage: over-expression category of source gene, SKCM [3, 5] | Target coverage: over-expression category of source gene, STAD [3, 5] | Target coverage: over-expression category of source gene, UCEC [3, 5] | Expression score CRC [2] | Expression score GC [2] | other results
1 | 121: peptide found in GRWD1 (gene looked up) (FTIFRTISV; listed as Homo sapiens) [compound 121] | CLL | + | C (>=5% of tumors above the cutoff, but <20%) | B (>= 20% of tumors above the cutoff, but <50%) | C (>=5% of tumors above the cutoff, but <20%) | C (>=5% of tumors above the cutoff, but <20%) | B (>= 20% of tumors above the cutoff, but <50%) | B (>= 20% of tumors above the cutoff, but <50%) | B (>= 20% of tumors above the cutoff, but <50%) | C (>=5% of tumors above the cutoff, but <20%) | C (>=5% of tumors above the cutoff, but <20%) | C (>=5% of tumors above the cutoff, but <20%) | A (>=50% of tumors above the cutoff) | B (>= 20% of tumors above the cutoff, but <50%) | C (>=5% of tumors above the cutoff, but <20%) | B (>= 20% of tumors above the cutoff, but <50%) | B (>= 20% of tumors above the cutoff, but <50%) | B (>= 20% of tumors above the cutoff, but <50%) |  |  | Presentation score CLL ([1]; HLA-A*02 peptides, chronic lymphocytic leukemia (N = 17) vs panel of normal tissues (N = 262)): ++++
2 | 123: peptide found in MST1R (gene looked up) (VLDPALPALV; listed as Homo sapiens) [compound 123] | OC, UBC | + |  |  |  |  | C (>=5% of tumors above the cutoff, but <20%) | C (>=5% of tumors above the cutoff, but <20%) | C (>=5% of tumors above the cutoff, but <20%) |  |  |  |  |  |  |  | C (>=5% of tumors above the cutoff, but <20%) |  | ++ | +++ | Presentation score OC ([1]; HLA-A*02 peptides, ovarian cancer (N = 20) vs panel of normal tissues (N = 262)): ++++; Presentation score UBC ([1]; HLA-A*02 peptides, urinary bladder cancer (N = 16) vs panel of normal tissues (N = 262)): ++++; Peptide Presentation on cancer entities ([1]; Table 13B, presentation on additional cancer entities): NSCLC, UEC, HNSCC; Expression score GBC_CCC ([2]; gallbladder adenocarcinoma and cholangiocarcinoma (N = 3) vs panel of normal tissues): +; Expression score NSCLC [2]: +; Expression score OC [2]: +; Expression score PC ([2]; pancreatic cancer (N = 26) vs panel of normal tissues): +++; Expression score UBC [2]: +++; Target coverage: over-expression category of source gene, PAAD [3, 5]: C (>=5% of tumors above the cutoff, but <20%)
3 | 127: peptide found in LRRC59 (gene looked up) (KLDGNELDL; listed as Homo sapiens) [compound 127] | NSCLC | + | B (>= 20% of tumors above the cutoff, but <50%) | A (>=50% of tumors above the cutoff) | A (>=50% of tumors above the cutoff) | A (>=50% of tumors above the cutoff) | A (>=50% of tumors above the cutoff) | A (>=50% of tumors above the cutoff) | A (>=50% of tumors above the cutoff) | A (>=50% of tumors above the cutoff) | A (>=50% of tumors above the cutoff) | A (>=50% of tumors above the cutoff) | A (>=50% of tumors above the cutoff) | A (>=50% of tumors above the cutoff) | A (>=50% of tumors above the cutoff) | A (>=50% of tumors above the cutoff) | A (>=50% of tumors above the cutoff) | A (>=50% of tumors above the cutoff) | + | + | Presentation score NSCLC ([1]; HLA-A*02 peptides, non-small cell lung cancer (N = 90) vs panel of normal tissues (N = 262)): ++++; Expression score BRCA ([2]; BRCA tumors vs panel of normal tissues): +; Expression score GB ([2]; glioblastoma (N = 24) vs panel of normal tissues): +; Expression score NSCLC [2]: +; Expression score OC [2]: +; Expression score UBC [2]: +; Expression score UEC ([2]; uterine cancer (N = 10) vs panel of normal tissues): +; Target coverage: over-expression category of source gene, KIRC ([3]; Clear cell kidney carcinoma (N = 534), cutoff more than 2-fold above highest 75% percentile of normal tissue samples): A (>=50% of tumors above the cutoff); Target coverage: over-expression category of source gene, KICH ([3]; Kidney chromophobe (N = 66), cutoff more than 2-fold above highest 75% percentile of normal tissue samples): B (>= 20% of tumors above the cutoff, but <50%); Target coverage: over-expression category of source gene, LGG ([3]; Lower grade glioma (N = 534), cutoff more than 2-fold above highest 75% percentile of normal tissue samples): A (>=50% of tumors above the cutoff); Target coverage: over-expression category of source gene, LUAD ([3]; Lung adenocarcinoma (N = 517), cutoff more than 2-fold above highest 75% percentile of normal tissue samples): A (>=50% of tumors above the cutoff); Target coverage: over-expression category of source gene, PAAD [3, 5]: A (>=50% of tumors above the cutoff); Target coverage: over-expression category of source gene, KIRP ([3]; Papillary kidney carcinoma (N = 291), cutoff more than 2-fold above highest 75% percentile of normal tissue samples): A (>=50% of tumors above the cutoff)

For part of these data: Expression values are those of the mRNA of the gene that encodes the peptide; a gene is named only where it was looked up.
